Reference: the supplement of paper PMC3334620
The full ranking holds about 33,000 sequences; the median of “E-score (-0.5 to 0.5)” is about -0.0059, and the highest 2% start at about 0.26. The list shows a part of the results.

biological target: T1, Cin5 (UniProt P40917); experiment: PBM E-score (8-mer binding enrichment) (E-score (-0.5 to 0.5)); higher = stronger / more preferred TF binding; conditions: protein concentration: 100 nM; construct: GST-full length
T1 sequence: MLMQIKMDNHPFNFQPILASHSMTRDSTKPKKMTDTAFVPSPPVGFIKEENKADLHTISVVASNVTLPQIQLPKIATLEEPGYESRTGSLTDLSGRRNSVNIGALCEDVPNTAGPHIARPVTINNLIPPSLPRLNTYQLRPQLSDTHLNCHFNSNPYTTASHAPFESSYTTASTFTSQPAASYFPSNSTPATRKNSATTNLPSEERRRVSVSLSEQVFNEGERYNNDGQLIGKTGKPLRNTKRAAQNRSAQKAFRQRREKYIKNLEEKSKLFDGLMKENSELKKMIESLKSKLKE
In short: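 Each ungapped eight-base word and its reverse complement, pooled, received an E-score from the Universal PBM Analysis Suite. Underlying scans, normalised with masliner, recorded fluorescent anti-GST bound to GST-tagged yeast transcription factors. These were applied at about 100-200 nM to universal all-10-mer Agilent arrays double-stranded by primer extension.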

Sequence | PBM E-score
ACTTGAAG | -0.018
CGTGCCGC | -0.0988
ACACTGAG | -0.091
ATTCATCG | 0.116
TCATAAAA | 0.0167
AAGCCCTC | -0.0392
CCGCGGGC | 0.0691
CTAAATGA | 0.0422
ATCAAGCC | -0.0172
AAAGTGGT | 0.115
ACACATAC | 0.0411
GGGAATAC | 0.0953
GGATGCCA | -0.157
GGTCAGTA | -0.0707
TAGCACTA | 0.0846
ACAGTCTA | -0.136
CCACTTGA | 0.139
GCTATTAC | 0.0669
ACCAACCT | -0.0401
CTAAACAA | -0.0966
ATCCCCCG | -0.269
CGTTAATC | 0.137
CGAGGGGA | -0.111
AGGTAAAT | 0.0494
CGGGGCTC | -0.2

Sequence | PBM E-score
GGTGATAA | 0.0222
GAACCGAA | 0.0343
GGGAAACC | 0.168
AAATCCGG | 0.0545
CATCACCC | -0.00304
GGAGCAAC | -0.0784
ACAGCGCT | 0.0569
AAGTTGAC | 0.00765
CAAAAGCA | -0.0485
AGCGAAGC | -0.181
GTGAAAAC | 0.0992
CAGGAAAC | -0.0166
AACTTACG | 0.148
TTAATCAA | 0.166
GTACTATA | 0.125
CCGAGACC | -0.0636
CGCAAGAA | 0.101
CCGAGACG | -0.0491
AACTGCCG | -0.0171
GCAAGAAA | 0.071
ATCGTATC | 0.0617
AATACCGG | 0.106
AGTCCTTG | -0.177
GGACGGAC | -0.126
GATGGCAA | 0.154

Sequence | PBM E-score
TAAAGCTA | -0.196
AGTGCCCA | 0.0274
CGCCGCTA | 0.0609
AACGGTCA | -0.0092
GCAGGGCC | -0.191
CGACTTTC | 0.00548
GCACAGTA | 0.1
CATGGGAC | -0.0553
CTCACTAA | 0.169
GCCAGATA | -0.0428
CTAATATC | 0.235
ACCATCAA | -0.00606
CCGTCAGC | -0.0655
CCTATAGC | 0.00418
ACGTCATA | 0.223
AACTGCCA | -0.0699
AGCGCATA | 0.138
CCTTCGGA | -0.15
CGCTCAGA | -0.185
AGCATACG | -0.0285
ATCCCACG | -0.0682
CTTAGGTC | -0.0156
ATTGTGAG | 0.0594
AATAGACG | 0.0669
CCTCGCAG | -0.233

Sequence | PBM E-score
ACGCCAAT | 0.0961
CCCTCATC | -0.0205
CTGTAAAG | -0.206
CATGCGAA | 0.0234
CAGTCCGA | -0.0341
CCGTGGAG | -0.135
CCTGCCCA | -0.0452
CAGGCCGG | -0.342
ACGAAATA | 0.192
GCCGTACC | -0.17
AAGGCGTC | -0.257
TAGATACA | 0.108
AACCACAG | 0.00497
ACCATGCC | -0.124
GTCGAGGA | -0.24
GAAATATA | 0.287
CAAGAGAG | -0.114
CGCCTGTC | -0.193
CAGTCAGG | -0.123
ATCGTCAG | -0.107
CTACTGCA | -0.28
ATCACTGA | -0.082
GACCTGGA | -0.208
AACCTCCT | -0.168
AAAGAATG | 0.058

Sequence | PBM E-score
GCCCCACC | 0.172
AGTGGCCC | -0.134
CAATCCGA | 0.17
AGCCTAAC | -0.136
AGGTCATA | -0.00463
GGACTAAC | -0.232
CAGTCGAG | -0.24
ACATAAAT | 0.28
CCGAGCTC | -0.033
AGCAACAT | 0.0103
CCAGTGCA | -0.0977
AGAAGATC | 0.0141
CCCCGGGA | 0.0124
ACTACCCA | -0.0496
CCTGCGGC | -0.34
AAACCACC | -0.0113
GGCCCAGA | -0.304
AAGCCGAT | 0.125
TTACAAAA | 0.256
ATAATCAC | 0.233
CCTCGTCC | -0.229
CCTCTGAA | -0.0862
GGTATGAC | -0.0978
ATATGTTC | 0.139
CCGTGCTC | 0.0121

4 entries picked at random from those above, as already listed:
Sequence | PBM E-score
ACTACCCA | -0.0496
CAATCCGA | 0.17
CCTCTGAA | -0.0862
AGGTCATA | -0.00463

Further entries follow.

Sequence | PBM E-score
TGAGATAA | 0.251
CTCTGATC | -0.162
ATCCAAGA | 0.0243
CATGCTGG | -0.136
ACTTCGAC | -0.0554
CGCCAAAA | 0.0561
ACGACAGA | -0.0343
GACGAGCA | -0.0935
ACTCCGCG | 0.0856
GTGGAATA | 0.193
ACCGGCGC | 0.0762
ATGTTGTG | 0.151
CATTCTTA | 0.155
AGGAACTG | -0.124
ACCGCCAA | -0.0388
TATTCCAA | 0.0259
GTGGCGTA | -0.0406
TCGACCAA | -0.102
GCGTAGAC | -0.184
CTGTTACC | -0.121
CTACTTGA | 0.069
ATGTGGAC | -0.0214
GCTCTAGA | -0.222
ATGGACGA | 0.107
GGCAGCCA | -0.159

Sequence | PBM E-score
CCTTCTTA | -0.0338
CAGATCCC | -0.0247
ATAAGATC | 0.0928
CACAACCG | 0.222
GGACCGGA | -0.0265
AGGACCGG | -0.294
GAATATCA | 0.174
CTGGACGC | -0.175
CGTGAAGA | -0.117
ACCAAAAC | 0.127
ATGTCTCC | 0.047
ACCGGGAG | -0.322
TAACACTA | 0.202
CATTGTAG | 0.143
CTTGTTCC | 0.00268
GAACACTA | 0.0146
ATTGTTTA | 0.102
AGGTATTG | 0.126
ACGACCTC | 0.241
CCTCCAGC | -0.341
ATATACAT | 0.16
GAAACTAC | 0.031
CGTGTCAG | 0.0706
AAATTCCT | -0.101
ATAGTTCG | 0.111

53 entries from above, as tab-separated lines.
Sequence	PBM E-score
ATAATCAC	0.233
CCTCGTCC	-0.229
CCTCTGAA	-0.0862
GGTATGAC	-0.0978
ATATGTTC	0.139
CCGTGCTC	0.0121
TGAGATAA	0.251
CTCTGATC	-0.162
ATCCAAGA	0.0243
CATGCTGG	-0.136
ACTTCGAC	-0.0554
CGCCAAAA	0.0561
ACGACAGA	-0.0343
GACGAGCA	-0.0935
ACTCCGCG	0.0856
GTGGAATA	0.193
ACCGGCGC	0.0762
ATGTTGTG	0.151
CATTCTTA	0.155
AGGAACTG	-0.124
TATTCCAA	0.0259
GTGGCGTA	-0.0406
TCGACCAA	-0.102
GCGTAGAC	-0.184
CTGTTACC	-0.121
CTACTTGA	0.069
ATGTGGAC	-0.0214
GCTCTAGA	-0.222
ATGGACGA	0.107
GGCAGCCA	-0.159
CAGATCCC	-0.0247
ATAAGATC	0.0928
CACAACCG	0.222
GGACCGGA	-0.0265
AGGACCGG	-0.294
GAATATCA	0.174
CTGGACGC	-0.175
CGTGAAGA	-0.117
ACCAAAAC	0.127
ATGTCTCC	0.047
ACCGGGAG	-0.322
TAACACTA	0.202
CATTGTAG	0.143
CTTGTTCC	0.00268
GAACACTA	0.0146
ATTGTTTA	0.102
AGGTATTG	0.126
ACGACCTC	0.241
CCTCCAGC	-0.341
ATATACAT	0.16
CGTGTCAG	0.0706
AAATTCCT	-0.101
ATAGTTCG	0.111

Remaining list, next part

Sequence | PBM E-score
CTGTGAAA | 0.215
ACGCACGA | 0.00465
CAGGCTAG | -0.311
ATAGTAAC | 0.182
GGACGCAA | -0.0397
ATGCGTCC | -0.125
ACAGTCAA | -0.0239
CATTGTCG | -0.0797
TCAAAGCA | -0.023
AACACAAA | 0.116
ACGTTACT | 0.11
AGAGTAAA | 0.145
GCGAGCTA | 0.107
CGTGCCCC | -0.119
CGCTACGA | 0.0464
CTGTGTGC | -0.243
CACAGGAG | -0.0423
CTCGAACC | -0.0919
TAACAGTA | 0.135
AGGCCCAG | -0.236
GATAGCCA | -0.0246
CATGCTAC | -0.23
ACTATATA | 0.309
CCCGACCC | -0.108
ACCGACAG | -0.155

Sequence | PBM E-score
ACCGAGTC | -0.264
CTGATAAA | 0.204
GCTTGCTA | -0.208
AGTTGAGA | -0.0533
CGTCAGTC | -0.0855
GGCGCCAA | 0.0115
CGCACACA | -0.0387
AAGTTTCA | 0.155
GGCGGCCA | -0.121
ATATTCGG | 0.0247
ATTTACGC | 0.0814
TATACTAA | 0.0615
ACGTGCCA | -0.116
ATCGTCTG | -0.109
CCCGCGGG | 0.171
GGACCGTA | -0.287
GCACAGCA | -0.0482
AACAACGT | 0.0242
GCACAGAA | 0.0345
